Structures can show the parent of a compound that is named as a salt. This is one part of the list. The data scatter; read single values as rough.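 Yeast growth was read as optical density at 600 nm. The two-hybrid strains grew without histidine, so growth needed the Pex3–Pex19 binding; a compound counted as trypanosome-selective if it cut growth of the trypanosome-pair strain by more than 65% and the human-pair strain by less than 65%.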
What was measured:
[1] = test system: Saccharomyces cerevisiae HF7c pdr5Δ; assay: general growth inhibition of yeast HF7c pdr5Δ in -Leu -Trp medium, relative to DMSO; higher = stronger general growth inhibition; settings: 100 µM; 24 h
[2] = test system: human PEX3-PEX19 interaction (yeast two-hybrid); assay: growth inhibition of yeast two-hybrid strain reporting HsPex3-HsPex19 interaction, relative to DMSO; higher = stronger inhibition of human Pex3-Pex19 interaction / growth; settings: 100 µM; 24 h; 3-aminotriazole 10 mM
[3] = test system: T. brucei Pex3-Pex19 interaction (yeast two-hybrid); assay: growth inhibition of yeast two-hybrid strain reporting TbPex3-TbPex19 interaction, relative to DMSO; higher = stronger inhibition of T. brucei Pex3-Pex19 interaction / growth; settings: 100 µM; 24 h

| SMILES | general growth inhibition [1] [%] | growth inhibition [2] [%] | growth inhibition [3] [%] |
| --- | --- | --- | --- |
| CCCC(C(=O)OCCN(CC)CC)(c1ccccc1)c1ccccc1 [SKF-525A hydrochloride] | 42.6 | 37.3 | 67.2 |
| CCc1ccc2c(-c3cccc(Cl)c3)nc(=O)n(CC)c2n1 | 64.1 | 49.1 | 59 |
| NS(=O)(=O)c1cc(C(=O)O)c(NCc2ccco2)cc1Cl [Furosemide] | 39.6 | 40.7 | 60.4 |
| N[C@@H](CCC(=O)N[C@@H](CSN=O)C(=O)NCC(=O)O)C(=O)O [S-Nitrosoglutathione] | 58.8 | 50.9 | 70.1 |
| CC(CCc1ccccc1)NCC(O)c1ccc(O)c(C(N)=O)c1 (configuration not stated) [Labetalol hydrochloride] | 49.8 | 38.9 | 65.8 |
| CC(C)(C)C(=O)Oc1ccc(S(=O)(=O)Nc2ccccc2C(=O)NCC(=O)O)cc1 [Sivelestat sodium salt hydrate] | 53.7 | 51.8 | 65.9 |
| CCN(CC)CCNC(=O)c1ccc(NS(C)(=O)=O)cc1 [Sematilide monohydrochloride monohydrate] | 36.6 | 37.6 | 59 |
| CC/C(=C(\c1ccccc1)c1ccc(OCCN(C)C)cc1)c1ccccc1 [Tamoxifen citrate] | 57.1 | 30.3 | 71.7 |
| CCCCCCCCCCCCCCC[C@H](O)[C@H](N)CO (racemic) [DL-erythro-Dihydrosphingosine] | 12.3 | 9.61 | 50.8 |
| O=C(O)Cc1ccccc1Nc1c(Cl)cccc1Cl [Diclofenac sodium] | 79.4 | 79.4 | 84 |
| CC(=O)C(C)=O [2,3-Butanedione] | 39.5 | 41.4 | 65.2 |
| CC(C)(C)c1ccc(S(=O)(=O)/C=C/C#N)cc1 | 91.1 | 88.8 | 84.2 |
| Clc1ccccc1C(c1ccccc1)(c1ccccc1)n1ccnc1 [Clotrimazole] | 72.4 | 60.5 | 57.6 |
| O=C1NC(=O)C(c2ccccc2[N+](=O)[O-])=C1Nc1ccc(O)c(Cl)c1 | 20.5 | 19.5 | 42.9 |
| CN(C)[C@@H]1C(=O)C(C(N)=O)=C(O)[C@@]2(O)C(=O)C3=C(O)c4c(O)ccc(Cl)c4[C@@H](O)[C@H]3C[C@@H]12 [Demeclocycline hydrochloride] | 23.9 | 31.5 | 47.8 |
| C[C@@H](CN1CCC(Cc2ccccc2)CC1)[C@@H](O)c1ccc(O)cc1 [Ro 25-6981 hydrochloride] | 48.8 | 46.8 | 68.4 |
| CC1c2cccc(O)c2C(O)=C2C(=O)C3(O)C(O)=C(C(N)=O)C(=O)C(N(C)C)C3C(O)C21 (configuration not stated) [Doxycycline hydrochloride] | 3.19 | -15.8 | 24.6 |
| CC(C(=O)O)c1cccc(C(=O)c2ccccc2)c1 (configuration not stated) [Ketoprofen] | 42.6 | 37.3 | 60.6 |
| O=c1[nH]c(=O)c2nc3ccccc3nc2[nH]1 [Alloxazine] | 28 | 23.7 | 41 |
| O=c1cc(N2CCOCC2)oc2c(-c3ccccc3)cccc12 [LY-294,002 hydrochloride] | 55 | 49.6 | 63.5 |
| O=C1Cc2cc(CCN3CCN(c4nsc5ccccc45)CC3)c(Cl)cc2N1 [Ziprasidone hydrochloride monohydrate] | 46 | 39.2 | 61.7 |
| N=c1ccn2c(n1)O[C@H]1[C@H](O)[C@@H](CO)O[C@H]12 [Ancitabine hydrochloride] | 38.2 | 39.3 | 47.4 |
| CC#C[C@]1(O)CC[C@H]2[C@@H]3CCC4=CC(=O)CCC4=C3[C@@H](c3ccc(N(C)C)cc3)C[C@@]21C [Mifepristone] | 46.9 | 33.8 | 44.5 |
| Cc1nc2sccn2c(=O)c1CCN1CCC(=C(c2ccc(F)cc2)c2ccc(F)cc2)CC1 [Ritanserin] | 30.1 | 25.3 | 61.8 |
| N#C/C(=C\c1ccc(O)c(O)c1)C(=O)c1ccc(O)c(O)c1 [Tyrphostin AG 538] | 41.2 | 43.3 | 53 |
| Cc1nc(C#Cc2cccnc2)cs1 [MTEP hydrochloride] | 44.3 | 51 | 61.7 |
| COc1ccccc1N1CCN(CCCNc2cc(=O)n(C)c(=O)n2C)CC1 [Urapidil hydrochloride] | 53.8 | 51.4 | 66.6 |

Only growth inhibition [3] [%] (3 entries from above):
SMILES	growth inhibition [3] [%]
O=C1NC(=O)C(c2ccccc2[N+](=O)[O-])=C1Nc1ccc(O)c(Cl)c1	42.9
CN(C)[C@@H]1C(=O)C(C(N)=O)=C(O)[C@@]2(O)C(=O)C3=C(O)c4c(O)ccc(Cl)c4[C@@H](O)[C@H]3C[C@@H]12 [Demeclocycline hydrochloride]	47.8
C[C@@H](CN1CCC(Cc2ccccc2)CC1)[C@@H](O)c1ccc(O)cc1 [Ro 25-6981 hydrochloride]	68.4

2 entries drawn at random from the list so far, as already listed:

| SMILES | general growth inhibition [1] [%] | growth inhibition [2] [%] | growth inhibition [3] [%] |
| --- | --- | --- | --- |
| N#C/C(=C\c1ccc(O)c(O)c1)C(=O)c1ccc(O)c(O)c1 [Tyrphostin AG 538] | 41.2 | 43.3 | 53 |
| O=c1cc(N2CCOCC2)oc2c(-c3ccccc3)cccc12 [LY-294,002 hydrochloride] | 55 | 49.6 | 63.5 |

Continuation.

| SMILES | general growth inhibition [1] [%] | growth inhibition [2] [%] | growth inhibition [3] [%] |
| --- | --- | --- | --- |
| O=C1c2ccccc2C(=O)c2c(NCCc3ccc(O)cc3)ccc(NCCc3ccc(O)cc3)c21 | -8.24 | -21.3 | -1.08 |
| COc1cc(C(O)C(=O)O)ccc1O (racemic) [(±)-Vanillylmandelic acid] | 38.7 | 42.5 | 58.4 |
| COCCCC/C(=N\OCCN)c1ccc(C(F)(F)F)cc1 [Fluvoxamine maleate] | 35.5 | 35.5 | 49.8 |
| COCCNC(=O)COc1ccc(OCCNC[C@H](O)COc2ccccc2)cc1 [ZD 7114 hydrochloride] | 38.9 | 42.5 | 55.8 |
| Cn1ccc2cc(NC(=O)Nc3cccnc3)ccc21 | 39.4 | 39.3 | 55.7 |
| N=c1nc(N2CCCCC2)cc(N)n1O [Minoxidil] | 36.1 | 42.4 | 64.1 |
| COC1=C(OC)C(=O)c2ccccc2C1=O [2,3-Dimethoxy-1,4-naphthoquinone] | 43.3 | 69.5 | 82.5 |
| COc1cc(SC)ccc1C(=O)N1CCC(Cc2ccccc2)CC1 | 41.8 | 21.8 | 30.6 |
| CC(=O)c1ccc2c(c1)N(CCCN(C)C)c1ccccc1S2 [Acepromazine maleate] | 44.4 | 44.9 | 58.5 |
| CN(C)CCCN1c2ccccc2Sc2ccccc21 [Promazine hydrochloride] | 25.9 | 11.3 | 37.6 |
| N=C(N)NCCCCNC(=N)N [Arcaine sulfate] | 38.9 | 33.8 | 45.5 |
| CN1CCN(CCCN2c3ccccc3Sc3ccc(Cl)cc32)CC1 [Prochlorperazine dimaleate] | 31.6 | 27.1 | 45.1 |
| CCC1(C)CC(=O)NC1=O (configuration not stated) [Ethosuximide] | 32.9 | 37.7 | 59.6 |
| Cc1c(OCC(F)(F)F)ccnc1C[S+]([O-])c1nc2ccccc2[nH]1 (configuration not stated) [Lansoprazole] | 86.1 | 80.9 | 84.2 |
| NS(=O)(=O)c1cc2c(cc1Cl)NCNS2(=O)=O [Hydrochlorothiazide] | 36.8 | 33.2 | 58 |
| O=C1NC(c2cccc([N+](=O)[O-])c2)=CCN1c1ccccc1O [Icilin] | 34.2 | 22.7 | 61.6 |
| Oc1ccc(/C=C/c2cc(O)cc(O)c2)cc1 [Resveratrol] | 45 | 42.8 | 60.1 |
| NC[C@@H]1O[C@H](C23CC4CC(CC(C4)C2)C3)Cc2c1ccc(O)c2O | 42 | 35.9 | 58.6 |
| CCCCN(CC)c1nc(C)nc2c1c(C)cn2-c1c(C)cc(C)cc1C | 44.8 | 22.4 | 21.9 |
| C=C[C@H]1CN2CC[C@H]1C[C@@H]2[C@@H](O)c1ccnc2ccc(OC)cc12 [Quinidine sulfate] | 43.5 | 41.9 | 73.2 |
| O=c1cc(-c2ccccc2)oc2c(O)c(O)ccc12 [7,8-Dihydroxyflavone hydrate] | 42.6 | 38.4 | 61.4 |
| CC(=O)NNC(=O)N1Cc2ccccc2Oc2ccc(Cl)cc21 | 48.6 | 46.1 | 68.5 |
| O=C1NC(=O)c2cc(Nc3ccccc3)c(Nc3ccccc3)cc21 | -12.1 | -32.6 | -8.67 |
| CNCCc1cnc(CCC(c2ccccc2)c2ccccc2)[nH]1 [N-Methylhistaprodifen dioxalate salt] | 22.1 | 35.1 | 60.8 |
| C[N+]1(C)CCC(OC(=O)C(c2ccccc2)c2ccccc2)CC1 [4-DAMP methiodide] | 5.05 | 4.77 | 30.2 |
| Clc1ccc(Cn2c(CN3CCCC3)nc3ccccc32)cc1 [Clemizole hydrochloride] | 42.7 | 38.4 | 60.1 |
| Cc1cc(Nc2ncc3cc(-c4c(Cl)cccc4Cl)c(=O)n(C)c3n2)ccc1F | 5.21 | -13.7 | 18.4 |

Source: the supplement of paper PMC8326762, “A Small Molecule Inhibitor of Pex3–Pex19 Interaction Disrupts Glycosome Biogenesis and Causes Lethality in Trypanosoma brucei” (Frontiers in Cell and Developmental Biology, 2021)
